# Results reported in PMC3355077.
# Amino acid sequences for entries named in this document (tags omitted). A change or cut given only in a name is not applied to a line headed by its entry. Chains listed by the source or under a name are the forms on record and can include a tag or linker. Residues count along the entry.
# GST-tagged Psip1 PWWP domain (Q99JF8, residues 1-97): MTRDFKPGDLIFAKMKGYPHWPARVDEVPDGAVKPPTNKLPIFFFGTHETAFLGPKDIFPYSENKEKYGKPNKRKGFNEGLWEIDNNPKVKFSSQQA
# GST-p52 (Q99JF8, form named): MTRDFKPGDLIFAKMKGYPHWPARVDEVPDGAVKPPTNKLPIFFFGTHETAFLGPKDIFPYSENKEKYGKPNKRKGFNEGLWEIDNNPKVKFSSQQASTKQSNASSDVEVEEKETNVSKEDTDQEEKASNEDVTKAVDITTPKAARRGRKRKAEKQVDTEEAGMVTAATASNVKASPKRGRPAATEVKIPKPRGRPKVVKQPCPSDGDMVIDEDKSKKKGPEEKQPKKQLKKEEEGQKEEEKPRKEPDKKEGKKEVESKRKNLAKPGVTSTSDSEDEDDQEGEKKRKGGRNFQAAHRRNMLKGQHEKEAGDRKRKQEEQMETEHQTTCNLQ
# UniProt Q6PDM2: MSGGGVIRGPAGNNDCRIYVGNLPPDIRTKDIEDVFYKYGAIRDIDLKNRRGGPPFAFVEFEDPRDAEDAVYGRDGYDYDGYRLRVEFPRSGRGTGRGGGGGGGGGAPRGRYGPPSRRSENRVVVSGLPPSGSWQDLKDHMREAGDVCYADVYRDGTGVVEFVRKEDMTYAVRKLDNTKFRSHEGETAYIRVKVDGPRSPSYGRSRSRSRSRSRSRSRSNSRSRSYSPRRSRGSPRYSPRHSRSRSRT
# UniProt Q07955: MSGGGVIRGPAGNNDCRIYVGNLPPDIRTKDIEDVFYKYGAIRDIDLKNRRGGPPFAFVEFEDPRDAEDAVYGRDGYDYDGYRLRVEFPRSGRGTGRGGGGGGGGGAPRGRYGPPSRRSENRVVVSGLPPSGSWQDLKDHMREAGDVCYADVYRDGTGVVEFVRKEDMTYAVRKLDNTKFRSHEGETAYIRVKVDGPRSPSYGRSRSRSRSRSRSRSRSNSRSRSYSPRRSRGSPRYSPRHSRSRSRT
# Results are given in words; binding and its absence hold for the method and conditions named. Binding seen in cells or lysates may run through a third protein. Some binding calls cover weakened binding; strength is not graded here.
# Columns and labels:
# [1] = molecular target: Psip1/p52 (endogenous) (mouse (endogenous in NIH 3T3 and MEFs)) (UniProt Q99JF8); assay: co-IP; A300-847 IP from NIH 3T3 nuclear extract, Protein A Dynal beads, 45 min 4°C, washes with 200 mM KCl; immunoblot; for SRSF1 also with RNase A
# [2] = molecular target: GST-tagged Psip1 PWWP domain (mouse) (UniProt Q99JF8); assay: pull-down; GST-p52 or GST-PWWP on glutathione beads incubated with lysates of 293T cells overexpressing tagged SR proteins, GST lysis buffer, 5 washes; immunoblot with αT7 or αGFP; only the target purified
# [3] = molecular target: GST-p52 (mouse) (UniProt Q99JF8); assay: as above
binding [1],binding [2],binding [3],Substance
binds,,,Srsf1 (endogenous) (from UniProt Q6PDM2 1-248)
,no binding,binds,T7-SRSF1 (from UniProt Q07955 1-248)
